# Test results published in PubChem BioAssay AID1487 (National Center for Advancing Translational Sciences (NCATS), 2009).
# This is one part of the list. These are further read-outs of the screen, such as a control signal, another cell line or another target. No call is given for them. Most of these compounds were active or inconclusive in the main read-out, so they are no random draw. Words in brackets tell the shape of the fitted curve; partial curves, single points and poor fits give uncertain potencies.
# Assay: qHTS Assay for Modulators of Lamin A Splicing
# Conditions: HeLa LMNA splicing GFP/RFP minigene ratio, 48 h
# Method in brief: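 S3 HeLa stable clones carrying a lamin A-EGFP splicing minigene plus DsRed2 were seeded at 600 cells/well in Opti-MEM with 2% FBS, pin-dosed and incubated 48 h at 37°C. Acumen cytometry (488 nm) gave the GFP/RFP total-intensity ratio.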
# [1] = measured here: RFP viability control channel
# [2] = measured here: GFP splicing reporter channel
Compound,AC50 [1],AC50 [2]
COc1ccc(C(C(O)C(=O)c2c[nH]c3ccccc23)N2CCN(c3ccccc3)CC2)cc1 (stereo unspecified),"14.1 µM [rising, partial curve]",
CCOc1ccc(-c2c(C)nn3c(C)c(C(=O)NCc4ccc(Cl)cc4)cnc23)cc1OCC,"8.91 µM [falling, partial curve]",
COc1ccccc1N1CCN(CC(O)COc2ccc3c(c2)CCC3)CC1 (stereo unspecified),"11.2 µM [rising, partial curve]","12.6 µM [rising, single point]"
COCCn1c(-c2cc(OC)c(OC)c(OC)c2)nc2oc3ccccc3c(=O)c2c1=O,"35.5 µM [rising, single point]",
CCN(Cc1ccccc1)C(=O)CSc1nncn1C,"0.0501 µM [falling, full curve]",
CCC(NC(=O)Nc1cc(Cl)ccc1OC)c1c(-n2cccc2)sc2c1CCN(C)C2 (stereo unspecified),"35.5 µM [falling, partial curve]","35.5 µM [falling, partial curve, poor fit]"
COc1cc(/C=C2\C(=O)N(c3ccccc3)N=C2C)ccc1Oc1ccc([N+](=O)[O-])cc1[N+](=O)[O-],"5.01 µM [rising, full curve]",
NNC(=O)CCN1CCN(C(c2ccccc2)c2ccccc2)CC1,"0.158 µM [rising, full curve]",
O=C(Nc1cccc2ccccc12)N1CCN(Cc2ccccc2)CC1,"35.5 µM [rising, single point]","1.26 µM [rising, partial curve, poor fit]"
N/C(=N\N=C\c1cccs1)SC1CC(=O)N(c2ccc(Br)cc2)C1=O (stereo unspecified),"0.794 µM [falling, full curve, poor fit]","1.58 µM [falling, full curve, poor fit]"
CCC(C)(C)n1nnnc1C(c1ccc(O)c(OC)c1)N1CCN(c2nc3ccccc3s2)CC1 (stereo unspecified),"35.5 µM [rising, single point]",
Cc1cccc(CSc2nc3cc(C(=O)NC4CCCC4)ccc3c(=O)n2Cc2ccccc2)c1,"35.5 µM [falling, partial curve, poor fit]",
NC(=O)c1cccc(N)c1,"0.00126 µM [falling, full curve]","0.0398 µM [falling, full curve, poor fit]"
Cc1ccc(C)c(NC(=S)NNC(=O)c2csc(C(C)C)c2)c1,"14.1 µM [rising, single point]",
N#CC1=C(N)Oc2n[nH]c(-c3cccs3)c2C1C1CCCCC1 (stereo unspecified),"35.5 µM [falling, partial curve, poor fit]",
CCC(C)(C)n1nnnc1C(c1cc2ccc(OC)cc2[nH]c1=O)N1CCc2ccccc2C1 (stereo unspecified),"35.5 µM [rising, single point]",
COc1ccc(C2C(C(C)=O)=C(C)N=c3s/c(=C\c4cc(C)n(C)c4C)c(=O)n32)c(OC)c1 (stereo unspecified),"14.1 µM [falling, partial curve]","14.1 µM [falling, partial curve, poor fit]"
O=C(Nc1ccc(F)cc1)c1ccccc1NS(=O)(=O)N1CCCC1,,"0.355 µM [falling, full curve, poor fit]"

Compound,AC50 [1],AC50 [2]
Cc1ccc(O)c(-c2cc(-c3ccccc3[N+](=O)[O-])[nH]n2)c1,"6.31 µM [rising, partial curve, poor fit]",
Cc1ccc(SC(C)c2nc(-c3ccncc3)no2)cc1 (stereo unspecified),"14.1 µM [rising, partial curve]","8.91 µM [rising, partial curve]"
C=CCn1c(=O)[nH]c2cc(C(=O)N3CCN(c4ccc(C(C)=O)cc4)CC3)ccc2c1=O,"22.4 µM [rising, single point]",
CCOc1ncccc1C(=O)Nc1nnc(C)s1,,"0.0112 µM [rising, full curve, poor fit]"
Nc1ccc2c(c1)COC2=O,"0.0891 µM [falling, full curve]","3.98 µM [falling, partial curve, poor fit]"
O=S(=O)(c1c(F)cccc1F)N1CCN(C(=S)NCc2ccc3c(c2)OCO3)CC1,"35.5 µM [rising, partial curve, poor fit]",
O=C(NNC(=S)NC1CCCCC1)c1sc2ccccc2c1Cl,"3.55 µM [rising, full curve]",
O=C(NCc1cccnc1)c1cccc(NC(=O)c2ccco2)c1,,"1.41 µM [rising, partial curve]"
Cc1[nH]n(-c2ccccc2)c(=O)c1/C=N/NC(=O)C(C)C,"2.82 µM [rising, single point]",
O=C(CCc1nc(-c2ccccc2F)no1)NCCN1CCc2ccccc2C1,"0.00447 µM [falling, full curve, poor fit]","0.0112 µM [falling, full curve, poor fit]"
Cc1cc(C)c2c(CN3CCN(Cc4ccc5c(c4)OCO5)CC3)cc(=O)oc2c1C,,"8.91 µM [rising, partial curve]"
O=[N+]([O-])c1cc(S(=O)(=O)Nc2ccc(Cl)cc2)ccc1N/N=C/c1ccncc1,"8.91 µM [rising, partial curve, poor fit]",
Cc1c(CCNC(=O)Cc2ccccc2)sc2nc(-c3ccc(F)cc3)nn12,,"10 µM [rising, partial curve]"
CN(C)C/C=C(\c1ccc(Br)cc1)c1cccnc1,,"0.355 µM [falling, full curve, poor fit]"
Cc1c(C(=O)c2ccc(Cl)cc2[N+](=O)[O-])c2ccccn2c1CCC#N,"12.6 µM [rising, single point]",
Cc1ccc2nc3c(cc(C(N)=S)c(=N)n3CCCOC(C)C)c(=O)n2c1,"14.1 µM [rising, single point]",
COc1ccccc1C(=O)Oc1cc(N)n(S(=O)(=O)c2ccccc2)n1,"35.5 µM [falling, partial curve, poor fit]","0.0447 µM [falling, full curve, poor fit]"
Cc1cccn2c(=O)c3cc(C#N)c(=O)n(CCCN4CCOCC4)c3nc12,"11.2 µM [rising, partial curve]",

# Quoted at random: 2 compounds from above, in no set order.
Compound,AC50 [1],AC50 [2]
COc1ccccc1N1CCN(CC(O)COc2ccc3c(c2)CCC3)CC1 (stereo unspecified),"11.2 µM [rising, partial curve]","12.6 µM [rising, single point]"
O=C(NCc1cccnc1)c1cccc(NC(=O)c2ccco2)c1,,"1.41 µM [rising, partial curve]"
